# Library screen at single concentrations

Amino acid sequences for entries named in this document (tags omitted). Residues count along the entry.
UniProt A4I591, 1-473: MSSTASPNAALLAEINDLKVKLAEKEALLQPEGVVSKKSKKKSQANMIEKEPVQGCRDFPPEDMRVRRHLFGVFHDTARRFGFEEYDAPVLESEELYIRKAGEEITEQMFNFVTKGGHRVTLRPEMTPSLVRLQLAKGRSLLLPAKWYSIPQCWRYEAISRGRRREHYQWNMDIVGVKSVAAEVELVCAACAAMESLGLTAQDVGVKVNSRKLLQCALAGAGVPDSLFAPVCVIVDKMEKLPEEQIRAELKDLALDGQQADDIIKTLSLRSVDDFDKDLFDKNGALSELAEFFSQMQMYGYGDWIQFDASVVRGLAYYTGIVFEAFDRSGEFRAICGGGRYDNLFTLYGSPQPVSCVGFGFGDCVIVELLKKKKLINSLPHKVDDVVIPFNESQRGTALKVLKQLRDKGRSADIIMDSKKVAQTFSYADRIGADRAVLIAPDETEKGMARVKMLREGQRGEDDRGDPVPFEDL
UniProt P9WNZ1, whole entry: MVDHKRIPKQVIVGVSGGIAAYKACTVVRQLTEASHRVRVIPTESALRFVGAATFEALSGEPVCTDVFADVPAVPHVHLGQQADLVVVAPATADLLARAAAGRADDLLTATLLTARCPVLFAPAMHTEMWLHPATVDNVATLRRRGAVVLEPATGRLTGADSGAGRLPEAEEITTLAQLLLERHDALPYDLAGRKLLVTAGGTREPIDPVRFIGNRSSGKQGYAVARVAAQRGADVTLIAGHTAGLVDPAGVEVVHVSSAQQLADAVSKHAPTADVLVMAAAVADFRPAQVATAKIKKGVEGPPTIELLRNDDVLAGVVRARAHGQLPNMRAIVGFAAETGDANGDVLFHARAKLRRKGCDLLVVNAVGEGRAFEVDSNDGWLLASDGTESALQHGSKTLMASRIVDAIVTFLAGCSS
UniProt Q8IDJ8, 1-583: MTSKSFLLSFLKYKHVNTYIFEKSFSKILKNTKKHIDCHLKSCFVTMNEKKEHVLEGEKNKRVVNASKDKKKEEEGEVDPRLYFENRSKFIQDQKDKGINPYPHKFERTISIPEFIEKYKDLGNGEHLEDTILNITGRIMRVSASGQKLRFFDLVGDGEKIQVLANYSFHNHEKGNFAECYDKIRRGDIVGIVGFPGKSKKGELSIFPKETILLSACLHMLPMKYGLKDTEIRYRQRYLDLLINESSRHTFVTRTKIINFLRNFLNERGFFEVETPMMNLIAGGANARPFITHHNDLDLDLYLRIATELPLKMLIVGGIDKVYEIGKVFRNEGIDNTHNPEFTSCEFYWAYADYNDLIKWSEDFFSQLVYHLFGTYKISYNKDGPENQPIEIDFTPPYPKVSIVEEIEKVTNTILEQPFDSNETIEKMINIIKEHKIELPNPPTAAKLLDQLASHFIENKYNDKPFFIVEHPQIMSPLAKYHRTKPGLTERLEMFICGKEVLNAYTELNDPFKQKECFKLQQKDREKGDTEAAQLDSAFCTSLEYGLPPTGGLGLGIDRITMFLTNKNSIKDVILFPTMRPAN
UniProt P9WFT3, whole entry: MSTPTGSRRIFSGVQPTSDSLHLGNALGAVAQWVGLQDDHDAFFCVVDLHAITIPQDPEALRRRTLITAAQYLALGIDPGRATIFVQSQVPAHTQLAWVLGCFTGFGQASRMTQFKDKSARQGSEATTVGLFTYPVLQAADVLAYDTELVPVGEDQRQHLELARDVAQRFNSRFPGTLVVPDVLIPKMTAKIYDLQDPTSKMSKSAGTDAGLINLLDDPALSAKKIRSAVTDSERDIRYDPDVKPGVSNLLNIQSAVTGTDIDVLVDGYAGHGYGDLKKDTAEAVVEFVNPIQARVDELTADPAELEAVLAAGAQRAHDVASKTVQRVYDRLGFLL

A: 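Enzyme assay of histidyl-tRNA synthetase; the read-out is not stated. Target: Histidine-tRNA ligase, Leishmania infantum (UniProt A4I591). Concentration: 30 µM. Direction is inferred from retests: higher values go with stronger inhibition. The assay is labelled LdHisRS but filed under L. infantum. Of about 69,000 compounds tested this way, about 410 (0.6%) reached 50% or more in at least one test.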
B: 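Coenzyme A biosynthesis protein CoaBC, Mycobacterium tuberculosis (UniProt P9WNZ1). Enzyme assay of CoaBC with a phosphate dye (Biomol Green) read at 650 nm. Compounds at 30 µM. Direction is inferred from only a few compounds that gave an IC50; most scored high, so higher reads as stronger inhibition. Most strong results did not repeat in a second test. About 67,000 compounds were tested under these conditions; 0.06% (about 40) showed 50% or more at least once.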
C: 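Lysine-tRNA ligase, Plasmodium falciparum 3D7 (UniProt Q8IDJ8). Enzyme assay of the cytosolic lysyl-tRNA synthetase in 384-well plates, read by luminescence. Tested at 30 µM. Higher reads as stronger inhibition, judged from the few compounds that gave an IC50. Of about 69,000 compounds tested this way, about 49 (0.071%) reached 50% or more in at least one test.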
D: 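Enzyme assay of tryptophanyl-tRNA synthetase; the read-out is not stated. Target: Tryptophan-tRNA ligase, Mycobacterium tuberculosis (UniProt P9WFT3). Concentration: 10 µM. Higher most likely means stronger inhibition; the record gives no direction and few retests gave an IC50. About 65,000 compounds were tested under these conditions; 0.098% (about 64) showed 50% or more at least once.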

Values are the deposited “Percent Effect”, in %.
The record does not define 0% and 100%; most values in the screen are far below 50% and negative numbers occur (in some assays of this library far below -100).
This is an unselected part of the compounds tested.

{"compound": "CCN1CCOC(CNc2nccc(OC)n2)C1", "stereo": "stereo unspecified", "A": 0, "B": 1.538, "C": 1.818, "D": 1.32}
{"compound": "O=C(NCC1CC1)[C@H]1C[C@@H]2CCN(Cc3ccc4c(c3)OCO4)C[C@@H]2O1", "A": 1.818, "B": -1.261, "C": 1.878, "D": 0.1744}
{"compound": "CC(=O)c1ccc(OCC(=O)c2cccn2C)cc1", "A": 7.447, "B": 6.734, "C": -3.614, "D": -26.06}
{"compound": "Cc1nnc2n1CCN(C(=O)c1cc(Cl)c[nH]1)C2", "A": 2.4, "B": -1.596, "C": -4.426, "D": -2.516}
{"compound": "Cc1ncoc1C(=O)N1CC[C@@]2(C[C@H](NS(C)(=O)=O)CCO2)C1", "A": 22, "B": 2.25, "C": 2.665, "D": -0.4691}
{"compound": "Cc1cc(C(=O)NCc2ccccn2)no1", "A": 11.9, "B": 2.017, "C": -0.8429, "D": -0.2347}
{"compound": "Cc1csc(CN2C[C@@H]3COC[C@]3(C(=O)NCc3ccco3)C2)n1", "A": 7, "B": -1.112, "C": -6.811, "D": 4.776}
{"compound": "CCC(NC(=O)c1ccco1)c1ccccc1OCC(=O)N1CCCC1", "stereo": "stereo unspecified", "A": 0, "B": 1.036, "C": 0.7736, "D": -4.232}
{"compound": "CN(CC(=O)NCC(F)(F)F)Cc1cccc2c1OCCO2", "A": -1.55, "B": -2.58, "C": -2.055, "D": -0.9031}
{"compound": "Cn1cccc1C(=O)N1CCCC2(CCCN2Cc2cccnc2)C1", "stereo": "stereo unspecified", "A": 5.882, "B": 0.6435, "C": -1.662, "D": -0.8629}
{"compound": "O=C(Nc1ccccc1CCc1ccccn1)NC1CCOCC1", "A": 1.408, "C": 3.742, "D": -2.523}
{"compound": "CCc1nc2n(n1)CC(NCC(=O)Nc1cc(C)nn1C)CC2", "stereo": "stereo unspecified", "A": 16.36, "B": 7.908, "C": 0.1582, "D": -8.205}
{"compound": "CC(C)(NC(=O)C1CCN(C2CCCCC2)CC1)c1nnc(N)s1", "A": 15, "B": 7.066, "C": 1.041, "D": 10.78}
{"compound": "COc1ncccc1CN1C[C@@H]2OCCN(CCN(C)C)[C@@H]2C1", "A": 17.54, "B": 5.708, "C": -2.731, "D": -1.48}
{"compound": "CCc1ncc2c(n1)CN(Cc1nc3c(F)cccc3[nH]1)CC2", "A": 21.21, "B": 0.9662, "C": 5.668, "D": -3.273}
{"compound": "Cc1cccc(C(=O)NCCCN2CCN(c3ccccc3)CC2)c1", "A": 12.62, "B": -0.3802, "C": -5.777, "D": 0.1103}
{"compound": "O=C1N(c2cccnc2)CCC12CCCN(Cc1cccnc1)C2", "stereo": "stereo unspecified", "A": 31.43, "B": 1.303, "C": 8.297, "D": 3.417}
{"compound": "COc1ccccc1C1(CNC(=O)NCc2noc(C)n2)CC1", "A": 22.92, "B": 5.754, "C": -1.539, "D": 9.864}
{"compound": "CNS(=O)(=O)c1cnccc1N1CCN(C(C)C)CC1", "A": 12.5, "B": 2.197, "C": 3.364, "D": 0.5025}
{"compound": "CCCC1C=CCN1C(=O)c1cc(COc2ccc3c(c2)OCO3)[nH]n1", "stereo": "stereo unspecified", "A": 22.38, "B": 8.642, "C": 9.943, "D": -2.819}
{"compound": "CC(C)n1cc(C(=O)NC2CCS(=O)(=O)C2)c2ccccc2c1=O", "stereo": "stereo unspecified", "A": 12.09, "B": 1.205, "C": 3.73, "D": -1.23}
{"compound": "O=C(CCc1nc2ccccc2[nH]1)NC1CCOC2(CCOCC2)C1", "stereo": "stereo unspecified", "A": 5.594, "B": 6.42, "C": -1.467, "D": 7.831}
{"compound": "CC(C)OC(=O)[C@@H]1CCN(C(=O)c2ccccn2)[C@@H]1c1ccc(F)cc1", "A": -43.66, "B": 0.9501, "C": 3.777, "D": -1.291}
{"compound": "COCCNC(=O)Cn1cc(OCc2ccccc2)c(=O)cc1CO", "A": 18.68, "B": 2.169, "C": -5.995, "D": 1.489}
{"compound": "COCC(=O)N1CCOC(c2ccc(N(C)C)cn2)C1", "stereo": "stereo unspecified", "A": 14.43, "B": -1.211, "C": -0.1993}
{"compound": "Cc1nc(C2CCCN2C(=O)CCCn2cncn2)no1", "stereo": "stereo unspecified", "A": 9.615, "B": 3.823, "C": 0, "D": 26.98}
{"compound": "Cn1c(CN2CCCCC2)nnc1C1CCN(c2nccc(N)n2)CC1", "A": 17.09, "B": 5.556, "C": 5.643, "D": -6.924}
{"compound": "Cc1cc(CN(C)C(=O)NC2CCN(Cc3ccccc3)C2)no1", "stereo": "stereo unspecified", "A": 8.8, "B": 1.064, "C": 7.24, "D": 0.6289}
{"compound": "CCCc1n[nH]c(C2CN(Cc3nnc(C4CC4)n3C)CCO2)n1", "stereo": "stereo unspecified", "A": 3.306, "B": -4.104, "C": 1.746, "D": 1.709}
{"compound": "CS(=O)(=O)NC[C@H]1Cn2c(-c3ccc(F)cc3)cnc2CO1", "A": 22.97, "B": 1.987, "C": 7.945, "D": -0.6829}
{"compound": "O=C(NCCc1cccnc1)Nc1cc(C(F)(F)F)c[nH]c1=O", "A": 11.01, "B": 8.095, "C": 0.3466, "D": 18.96}
{"compound": "CCn1nc(C)cc1C(=O)N1CCCN(CCCc2ccccc2)CC1", "A": 17.74, "B": 5.212, "C": 3.532, "D": 4.04}
{"compound": "CC(NC(=O)CSCC#N)c1ccc(Cl)cc1", "stereo": "stereo unspecified", "A": 9.649, "B": -1.434, "C": 0.6482, "D": -2.298}
{"compound": "CCOCC1CN(C(=O)c2ccnnc2)Cc2cnn(C)c21", "stereo": "stereo unspecified", "A": 1.389, "B": -1.356, "C": -0.2831, "D": -9.663}

From ChEMBL document CHEMBL3988442, “University of Dundee, Small-Polar-MMV Screening Library” (2021).